Literature values in patent publication US9939427B2, “Method for evaluating the scent performance of perfumes or perfume mixtures” (Symrise AG, priority 2013, dated 2018).

Details: specific anosmia to the primary odorant in humans; cited from earlier work

SMILES | Anosmia occurrence [%]
C[C@]12CCC(=O)C[C@@H]1CC[C@@H]1[C@@H]2CC[C@]2(C)C=CC[C@@H]12 [Androstenon, 5α-Androst-16-en-3-one] | 47
CC(C)C=O [Isobutyr aldehyde, Isobutyraldehyde] | 36
CC(C)CC(=O)O [Isovaleric acid] | 3
O=C1CCCCCCCCCCCCCCO1 [Pentadecanolide, ω-cyclopentadecanolide] | 12
